## Screening data, single-dose tests

The values are deposited in ChEMBL (CHEMBL3988442, “University of Dundee, Small-Polar-MMV Screening Library” (2021)).

Values are the deposited “Percent Effect”, in %. How 0% and 100% were set is not recorded. Most values in the screen are low, and negative values occur. Compounds were drawn at random from those tested, without regard to their results.

A: 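Phenotypic screen: M. tuberculosis growth, cholesterol and DPPC medium, 4 days; the read-out is not stated. Compounds at 500 µM. Direction is inferred from retests: higher values go with more growth inhibition. Of about 18,000 compounds tested this way, about 900 (5%) reached 50% or more in at least one test.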
B: 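Whole-cell growth test on Mycobacterium tuberculosis, read after 3 days in glucose-containing 7H9 medium; the read-out is not stated. Compounds at 500 µM. The record gives no direction; compounds that gave an IC50 in retests scored well above the rest, so higher reads as more growth inhibition. About 18,000 compounds were tested under these conditions; 7.9% (about 1,400) showed 50% or more at least once.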

structure: CN(C)C(=O)CCNc1ccnc2ccc(Cl)cc12
A: -6.27
B: 20.82

structure: CSCC(C)(O)CNC(=O)Nc1cc(C)on1 (configuration not stated)
A: 2.729
B: 0.7284

structure: CCCN1CCC(O)CC1
A: 2.27
B: 2.991

structure: CCn1c(SCC(=O)NC)nc2ccccc2c1=O
A: -9.895
B: -0.3346

structure: NCc1cc(=O)n2ccccc2n1
A: -25.08
B: -20.82

structure: COCCNC(=O)C(C)NS(=O)(=O)c1ccc(C)cc1 (configuration not stated)
A: 12.98
B: 22.45

structure: CN1CCC(NC(=O)CCc2ccccc2F)CC1
A: -15.59
B: -5.877

structure: CCOc1ccccc1N1CCN(S(C)(=O)=O)CC1
A: 2.088
B: -4.051

structure: NC(=O)C1(NC(=O)CC(O)c2cc(Cl)cc(Cl)c2)CC1 (configuration not stated)
A: 14.86
B: 23.38

structure: CNC(=O)C1CCCN(C(=O)c2ccc(O)cc2F)C1 (configuration not stated)
A: 7.45
B: -1.066

structure: OCCN1CCN(Cc2nnnn2C2CC2)CC1
A: 1.543
B: 2.866

structure: CO[C@@H]1COCC[C@H]1NC(=O)C1CCOCC1
A: 9.416
B: 1.358

structure: NC(CO)c1ccc(Cl)cc1C(F)(F)F (configuration not stated)
A: 15.5
B: 25.67

structure: O=S(=O)(NC1CCCC1)C1CNC1
A: -4.999
B: -4.368

structure: Cn1ccnc1-c1noc(NCc2cscn2)n1
A: 3.366
B: 1.681

structure: CCS(=O)(=O)CCNC(=O)NCCC(C)(C)C
A: 4.32
B: 5.266

structure: OCCC1(NCc2ccc(O)cc2)CCOCC1
A: 15.55
B: 1.017

structure: COc1ccc(C(=O)NC(O)C(=O)c2cccs2)cc1 (configuration not stated)
A: 5.134
B: 2.557

structure: CCSc1cncc(N2CCC(O)CC2)n1
A: 12.66
B: 34.7

structure: COc1cccc(CNCCC(C)(C)O)n1
A: 2.829
B: 15.58

structure: CNCc1nc(C)no1
A: 2.332
B: 3.969

structure: O=C(c1cncc(Br)c1)N1CCCC1c1ccc[nH]1 (configuration not stated)
A: 0.6745
B: 31.08

structure: CC(C(=O)N[C@@H](C)CO)c1ccsc1 (some centres not stated)
A: -0.7292
B: -2.397

structure: Cn1cncc1CCNC(=O)c1ccncc1F
A: -9.784
B: -7.799

structure: CC1CN(CCCN)CCCO1 (configuration not stated)
A: -7.328
B: 3.197

structure: N#Cc1cnn(C2CCOCC2)c1N
A: 1.106
B: 2.381

structure: Cc1cc(CN)c(C)o1
A: 4.442
B: 16.14

structure: COCCC1(CO)CCCN(CCN2CCCC2=O)C1 (configuration not stated)
A: -1.15
B: -0.2241

structure: CC(=O)c1ccc(CNC(=O)c2scnc2C)nc1C
A: -8.33
B: 6.221

structure: CC(N)c1ccc(OCC(=O)NC2CC2)cc1 (configuration not stated)
A: 5.098
B: 10.03

structure: CCc1cccc(S(=O)(=O)N2CCC(NC)C2)c1 (configuration not stated)
A: 15.28
B: 29

structure: CNC(C)c1ccc(-n2cncn2)cc1 (configuration not stated)
A: 7.431
B: -0.8741

structure: COc1c(C)cnc(CNC(=O)N(C)C(C)C)c1C
A: 4
B: 4.585

Some entries from above, unchanged:

| structure | A | B |
|---|---|---|
| `OCCC1(NCc2ccc(O)cc2)CCOCC1` | 15.55 | 1.017 |
| `CSCC(C)(O)CNC(=O)Nc1cc(C)on1` (configuration not stated) | 2.729 | 0.7284 |